These are yes or no findings as the source states them, for the method shown. Values belong to the substance of their own block, whether it stands above or below them.
Legend:
Experiment in all cases: native gel or EMSA; the EMSA gels stained for protein with Coomassie; UPF2 variants with no RNA, with ss-RNA or with hp-RNA (250 nM each); shift of the protein bands looked for; both purified
[1] = biological target: UPF2 MIF4G domain-1 (residues 120-486) (UniProt Q9HAU5)
[2] = biological target: UPF2 MIF4G domain-2 (residues 455-757) (UniProt Q9HAU5)
[3] = biological target: UPF2 MIF4G domain-3 (residues 761-1054) (UniProt Q9HAU5)
[4] = biological target: UPF2 MIF4G domains 1 and 2 (residues 120-757) (UniProt Q9HAU5)
[5] = biological target: UPF2 MIF4G domains 2 and 3 (residues 455-1054) (UniProt Q9HAU5)

By UniProt entry, the sequences of proteins in these tests, tags left out. Where a name states a change or a piece, a line headed by the entry shows the natural chain unless it says otherwise.
UniProt Q9HAU5: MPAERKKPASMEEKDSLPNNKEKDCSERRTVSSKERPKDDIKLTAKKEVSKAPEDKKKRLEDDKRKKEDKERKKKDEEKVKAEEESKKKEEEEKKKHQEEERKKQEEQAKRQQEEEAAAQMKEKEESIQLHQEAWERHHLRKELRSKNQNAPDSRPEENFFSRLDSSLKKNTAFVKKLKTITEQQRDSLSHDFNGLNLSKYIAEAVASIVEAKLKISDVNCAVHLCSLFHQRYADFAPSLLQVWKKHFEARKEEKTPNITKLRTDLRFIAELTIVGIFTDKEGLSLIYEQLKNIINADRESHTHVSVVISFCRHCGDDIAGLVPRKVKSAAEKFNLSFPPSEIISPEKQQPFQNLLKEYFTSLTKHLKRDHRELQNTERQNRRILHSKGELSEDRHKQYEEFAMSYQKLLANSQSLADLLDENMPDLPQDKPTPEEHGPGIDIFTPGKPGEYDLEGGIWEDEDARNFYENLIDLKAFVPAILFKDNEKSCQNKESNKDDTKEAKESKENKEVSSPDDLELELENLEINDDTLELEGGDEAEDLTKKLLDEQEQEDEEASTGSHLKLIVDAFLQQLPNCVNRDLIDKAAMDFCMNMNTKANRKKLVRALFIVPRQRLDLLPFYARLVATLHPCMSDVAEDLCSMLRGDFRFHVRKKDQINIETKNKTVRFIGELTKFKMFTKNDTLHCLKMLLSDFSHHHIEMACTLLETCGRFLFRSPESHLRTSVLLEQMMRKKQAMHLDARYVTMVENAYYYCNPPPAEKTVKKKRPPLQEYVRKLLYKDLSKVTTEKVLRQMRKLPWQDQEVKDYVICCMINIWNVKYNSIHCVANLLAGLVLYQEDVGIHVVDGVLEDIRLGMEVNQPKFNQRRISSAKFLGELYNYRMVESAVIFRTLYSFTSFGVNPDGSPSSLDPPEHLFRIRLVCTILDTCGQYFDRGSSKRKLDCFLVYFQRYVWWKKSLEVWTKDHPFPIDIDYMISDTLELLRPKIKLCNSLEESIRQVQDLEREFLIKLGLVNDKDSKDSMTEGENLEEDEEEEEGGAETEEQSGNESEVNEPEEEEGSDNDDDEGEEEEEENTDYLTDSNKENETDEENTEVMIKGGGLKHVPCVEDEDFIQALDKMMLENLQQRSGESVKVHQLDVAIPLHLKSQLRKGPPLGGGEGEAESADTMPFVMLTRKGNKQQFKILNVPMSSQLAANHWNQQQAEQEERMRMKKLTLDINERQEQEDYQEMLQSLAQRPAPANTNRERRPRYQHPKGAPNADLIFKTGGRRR

Substance: UPF2 MIF4G domain-1 (residues 120-486) (from UniProt Q9HAU5 120-486) (domain or fragment)
binding [1]: no binding

Substance: UPF2 MIF4G domains 2 and 3 (residues 455-1054) (from UniProt Q9HAU5 455-1054) (domain or fragment)
binding [5]: no binding

Second part, the substance after the results:

binding [2]: no binding
Substance: UPF2 MIF4G domain-2 (residues 455-757) (from UniProt Q9HAU5 455-757) (domain or fragment)

binding [3]: no binding
Substance: UPF2 MIF4G domain-3 (residues 761-1054) (from UniProt Q9HAU5 761-1054) (domain or fragment)

binding [4]: no binding
Substance: UPF2 MIF4G domains 1 and 2 (residues 120-757) (from UniProt Q9HAU5 120-757) (domain or fragment)
